Assay [1] has as its target C-terminal Venus-HADrp1 (Venus-C-terminal vector expressing Drp1) (UniProt O00429). As to the kind of experiment: co-IP; HEK293T cells co-transfected with the Venus vectors; immunoprecipitation with HA antibody, SDS-PAGE and immunoblotting. In general terms: In western blotting, separated proteins are transferred to a membrane and probed.
The target is the same in assay [2]. Put plainly: split reporter; BiFC in COS1 cells co-transfected with VN-PDIA1, a VC construct and pECFP (transfection control); YFP signal read by microscopy.

The chains behind the UniProt entries cited, without tags or fusion partners. Residues count along the entry.
UniProt O00429: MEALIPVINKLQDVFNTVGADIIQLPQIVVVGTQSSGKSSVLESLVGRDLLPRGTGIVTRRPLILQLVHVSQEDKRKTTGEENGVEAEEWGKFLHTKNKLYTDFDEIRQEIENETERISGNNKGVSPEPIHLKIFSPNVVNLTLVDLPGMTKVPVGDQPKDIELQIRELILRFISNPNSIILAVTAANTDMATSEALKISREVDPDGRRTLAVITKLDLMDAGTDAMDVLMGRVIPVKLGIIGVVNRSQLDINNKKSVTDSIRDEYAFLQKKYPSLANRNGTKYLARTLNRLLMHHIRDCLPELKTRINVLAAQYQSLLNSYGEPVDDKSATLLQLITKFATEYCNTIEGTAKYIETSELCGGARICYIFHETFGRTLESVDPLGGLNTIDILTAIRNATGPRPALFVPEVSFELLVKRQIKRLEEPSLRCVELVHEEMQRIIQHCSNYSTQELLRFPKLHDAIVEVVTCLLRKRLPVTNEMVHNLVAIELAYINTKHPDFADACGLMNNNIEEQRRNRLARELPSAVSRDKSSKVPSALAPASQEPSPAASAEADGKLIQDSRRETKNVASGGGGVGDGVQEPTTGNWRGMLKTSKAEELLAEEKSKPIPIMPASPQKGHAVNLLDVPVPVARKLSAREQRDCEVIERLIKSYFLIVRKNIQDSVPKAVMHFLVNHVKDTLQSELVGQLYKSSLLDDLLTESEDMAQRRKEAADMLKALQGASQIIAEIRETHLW
UniProt P07237, residues 18-508: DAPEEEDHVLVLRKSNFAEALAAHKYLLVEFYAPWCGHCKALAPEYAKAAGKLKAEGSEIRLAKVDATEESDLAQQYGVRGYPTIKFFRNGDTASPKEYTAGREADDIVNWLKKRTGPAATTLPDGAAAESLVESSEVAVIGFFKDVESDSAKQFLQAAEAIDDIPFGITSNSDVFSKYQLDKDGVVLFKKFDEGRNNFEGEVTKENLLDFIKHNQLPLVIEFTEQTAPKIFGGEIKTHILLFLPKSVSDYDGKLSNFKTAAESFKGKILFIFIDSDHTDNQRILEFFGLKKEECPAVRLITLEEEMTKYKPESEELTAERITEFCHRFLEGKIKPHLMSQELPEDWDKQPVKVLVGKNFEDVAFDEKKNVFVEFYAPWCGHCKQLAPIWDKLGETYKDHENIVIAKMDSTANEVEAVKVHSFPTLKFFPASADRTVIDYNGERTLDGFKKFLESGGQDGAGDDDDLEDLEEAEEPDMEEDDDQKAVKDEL

No constants are given. Whether binding was seen depends on the method and setting. In cells and extracts the contact can be indirect. Some results given as binding are weak or reduced against the parent protein; the word gives no strength.

In the case of “N-terminal Venus-PDIA1 (Venus-N-terminal vector expressing PDIA1) (from UniProt P07237 18-508) (enzyme)”, the binding entry in assay [1] and in assay [2] was “binds” each time.

For the origin of these results see article PMC6324937.
